The data set can be described thus: general procedure: solution-phase peptide synthesis; DEPC/DIEA; HATU/DIEA. The note with it: trifluoroacetic acid; for conjugation yield: conjugation step.
The mark [1] stands for this setting: late stage modification step, 210 nm.

This note sets out measurements from US20170043031A1 (PIERRE FABRE MEDICAMENT, priority 2014, published 2017).

As for “N—((S)-1-(((S)-1-((4-((3R,4S,7S,1S)-4-((S)-sec-butyl)-7,10-diisopropyl-3-(2-((S)-2-((1R,2R)-1-methoxy-2-methyl-3-oxo-3-(((S)-2-phenyl-1-(thiazol-2-yl)ethyl)amino)propyl)pyrrolidin-1-yl)-2-oxoethyl)-5,11-dimethyl-6,9-dioxo-2-oxa-5,8,11-triazatridecan-13-yl)phenyl)amino)-1-oxo-5-ureidopentan-2-yl)amino)-3-methyl-1-oxobutan-2-yl)-6-(2,5-dioxo-2,5-dihydro-1H-pyrrol-1-yl)hexanamide 2,2,2-trifluoroacetate”, the conjugation yield amounted to 70%. In the case of “((2R,3R)-3-((S)-1-((3R,4S,5S)-4-((S)-2-((S)-2-((4-((S)-2-((S)-2-(6-(2,5-dioxo-2,5-dihydro-1H-pyrrol-1-yl)hexanamido)-3-methylbutanamido)-5-ureidopentanamido)phenethyl)(methyl)amino)-3-methylbutanamido)-N,3-dimethylbutanamido)-3-methoxy-5-methylheptanoyl)pyrrolidin-2-yl)-3-methoxy-2-methylpropanoyl)-L-phenylalanine 2,2,2-trifluoroacetate”, the conjugation yield worked out at 36%.

On to “methyl ((2R,3R)-3-((S)-1-((3R,4S,55)-4-((S)-2-((S)-2-((3-(6-(2,5-dioxo-2,5-dihydro-1H-pyrrol-1-yl)hexanamido)benzyl)(methyl)amino)-3-methylbutanamido)-N,3-dimethylbutanamido)-3-methoxy-5-methylheptanoyl)pyrrolidin-2-yl)-3-methoxy-2-methylpropanoyl)-L-phenylalaninate 2,2,2-trifluoroacetate”, for which the conjugation yield was determined as 50%. Still for that read-out and setting: to “((2R,3R)-3-((S)-1-((3R,4S,5S)-4-((S)-2-((S)-2-((4-((((4-((S)-2-((S)-2-(6-(2,5-dioxo-2,5-dihydro-1H-pyrrol-1-yl)hexanamido)-3-methylbutanamido)-5-ureidopentanamido)benzyl)oxy)carbonyl)(methyl)amino)phenethyl)(methyl)amino)-3-methylbutanamido)-N,3-dimethylbutanamido)-3-methoxy-5-methylheptanoyl) pyrrolidin-2-yl)-3-methoxy-2-methylpropanoyl)-L-phenylalanine, 2,2,2-trifluoroacetate” belongs 35%. For “tert-butyl (3-((3S,6S,9S,10R)-9-((S)-sec-butyl)-3,6-diisopropyl-10-(2-((S)-2-((1R,2R)-1-methoxy-2-methyl-3-oxo-3-(((S)-2-phenyl-1-(thiazol-2-yl)ethyl)amino)propyl)pyrrolidin-1-yl)-2-oxoethyl)-2,8-dimethyl-4,7-dioxo-11-oxa-2,5,8-triazadodecyl)phenyl) carbamate”, the step yield (coupling step) is on record as 67%. As to “(S)—N-((3R,4S,5S)-3-methoxy-1-((S)-2-((1R,2R)-1-methoxy-2-methyl-3-oxo-3-(((S)-2-phenyl-1-(thiazol-2-yl)ethyl)amino)propyl)pyrrolidin-1-yl)-5-methyl-1-oxoheptan-4-yl)-N,3-dimethyl-2-((S)-3-methyl-2-(methyl(4-(methylamino)phenethyl)amino) butanamido)butanam”, the “final HPLC purity” value (late stage modification step, 254 nm) is given as 93.68%. Under “late stage modification step”, this substance showed a step yield of 39%.

Consider “(S)-2-((S)-2-((3-aminobenzyl)(methyl)amino)-3-methylbutanamido)-N-((3R,4S,5S)-3-methoxy-1-((S)-2-((1R,2R)-1-methoxy-2-methyl-3-oxo-3-(((S)-2-phenyl-1-(thiazol-2-yl)ethyl)amino)propyl)pyrrolidin-1-yl)-5-methyl-1-oxoheptan-4-yl)-N,3-dimethylbutanamide, trifluoro”, for which the “final HPLC purity” value under setting [1] is on record as 95.6%. For the setting “late stage modification step”, this substance gave a step yield of 10%. Under “coupling step”, “9H-fluoren-9-ylmethyl N-[(1S)-1-[[(3R,4S,5S)-3-methoxy-1-[(2S)-2-[(1R,2R)-1-methoxy-2-methyl-2-[[(1S)-2-phenyl-1-(1,3-thiazol-2-yl)ethyl]carbamoyl]ethyl]pyrrolidin-1-yl]-5-methyl-1-oxoheptan-4-yl](methyl) carbamoyl]-2-methylpropyl]carbamate” had a step yield of 71%.

In turn, “methyl ((2R,3R)-3-((S)-1-((3R,4S,5S)-4-((S)-2-((S)-2-((4-((((4-((S)-2-((S)-2-(6-(2,5-dioxo-2,5-dihydro-1H-pyrrol-1-yl)hexanamido)-3-methylbutanamido)-5-ureidopentanamido)benzyl)oxy)carbonyl)(methyl)amino)phenethyl)(methyl) amino)-3-methylbutanamido)-N,3-dimethylbutanamido)-3-methoxy-5-methylheptanoyl)pyrrolidin-2-yl)-3-methoxy-2-methylpropanoyl)-L-phenylalaninate 2,2,2-trifluoroacetate” yielded a conjugation yield of 70%.

For the substance “methyl (S)-2-((2R,3R)-3-((S)-1-((3R,4S,5S)-4-((S)-2-((((9H-fluoren-9-yl)methoxy)carbonyl)amino)-N,3-dimethylbutanamido)-3-methoxy-5-methylheptanoyl)pyrrolidin-2-yl)-3-methoxy-2-methylpropanamido)-3-phenylpropanoate”, for the setting “coupling step”, the step yield came out at 34%. “methyl (S)-2-((2R,3R)-3-((S)-1-((3R,4S,5S)-4-((S)—N,3-dimethyl-2-((S)-3-methyl-2-(methyl(4-(methylamino)phenethyl)amino)butanamido)butanamido)-3-methoxy-5-methylheptanoyl)pyrrolidin-2-yl)-3-methoxy-2-methylpropanamido)-3-phenylpropanoate, trifluoroacetic acid”: the “final HPLC purity” value (coupling step, 254 nm) was 90.6%. For the setting “coupling step”, this substance came in with a step yield of 7%. For “(S)-2-((S)-2-(((2-aminopyridin-4-yl)methyl)(methyl)amino)-3-methylbutanamido)-N-((3R,4S,5S)-1-((S)-2-((1R,2R)-3-(((1 S,2R)-1-hydroxy-1-phenylpropan-2-yl)amino)-1-methoxy-2-methyl-3-oxopropyl)pyrrolidin-1-yl)-3-methoxy-5-methyl-1-oxoheptan-4-yl)-N,3-dimethylbutanamide, trifluoroacetic acid”, the “final HPLC purity” value under setting [1] amounted to 99.2%. In addition, the step yield (late stage modification step) worked out at 6%.
